Measured values taken from patent publication US7923465B2, “Cannabinoid receptor ligands, pharmaceutical compositions containing them, and process for their preparation” (priority 2005, dated 2011).
At least one read-out could not be matched to a standard name with certainty.

Amino acid sequences for entries named in this document (tags omitted).
UniProt P21554, whole entry: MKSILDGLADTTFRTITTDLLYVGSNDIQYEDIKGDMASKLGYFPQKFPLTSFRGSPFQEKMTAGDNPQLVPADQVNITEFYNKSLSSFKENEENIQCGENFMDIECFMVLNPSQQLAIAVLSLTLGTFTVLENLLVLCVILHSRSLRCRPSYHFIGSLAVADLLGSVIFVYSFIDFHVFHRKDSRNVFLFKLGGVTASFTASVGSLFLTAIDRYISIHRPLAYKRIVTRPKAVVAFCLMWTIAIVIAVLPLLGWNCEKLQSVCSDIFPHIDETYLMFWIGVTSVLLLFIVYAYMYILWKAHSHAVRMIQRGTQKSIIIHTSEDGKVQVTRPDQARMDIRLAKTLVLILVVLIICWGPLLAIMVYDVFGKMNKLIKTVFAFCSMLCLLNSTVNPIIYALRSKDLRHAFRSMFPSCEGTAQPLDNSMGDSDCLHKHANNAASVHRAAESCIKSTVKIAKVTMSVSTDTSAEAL

target: hCB1 (Homo sapiens, UniProt P21554); assay: In vitro binding assay using hCB1-CHO membranes, [3H]-CP-55,940 displacement (Protocol II); set-up: expressed in transfected cells; host or cells: CHO (hCB1-CHO, generated in-house)
Experimental: II. Protocol for In Vitro Assay Using hCB1-CHO Membranes
The reaction was set up in a total volume of 200 μl in PEI (Poly(ethyleneimine)) (0.2%) precoated Millipore GFB (Glass Fibre-B) filter plates. 1 mM stocks of test compounds were prepared in DMSO and tested at a final concentration of 300 nM. The non-specific binding was determined by 0.5 μM CP-55, 940. […] The assay mixture (with or without the test compound) was incubated at 37° C. for 1 hour. The reaction was stopped by rapid filtration under vacuum and the radioactivity on the filters was measured by liquid scintillation counting.

Row | SMILES | % Displacement Protocol II [%]
1 | O=C(NCc1ccc(F)cc1F)c1nn(-c2ccc(Cl)cc2)c2c1C1CC3CC(C1)CC2C3 [Example 114, N(7)-(2,4-Difluorobenzyl)-5-(4-chlorophenyl)-5,6-diazatetracyclo[7.3.1.1^3,11.0^4,8]tetradeca-4(8),6-diene-7-carboxamide] | 25.27
2 | O=C(NCc1ccc(C(F)(F)F)cc1)c1nn(-c2ccc(Cl)cc2)c2c1C1CC3CC(C1)CC2C3 [Example 116, N(7)-(4-Trifluoromethylbenzyl)-5-(4-chlorophenyl)-5,6-diazatetracyclo[7.3.1.1^3,11.0^4,8]tetradeca-4(8),6-diene-7-carboxamide] | 1.85
3 | CC(C)(NC(=O)c1nn(-c2ccc(Cl)cc2)c2c1C1CC3CC(C1)CC2C3)c1ccccc1 [Example 119] | 89.21
4 | Cl.O=C(NNc1ccccc1)c1nn(-c2ccc(Cl)cc2)c2c1C1CC3CC(C1)CC2C3 [Example 122, N(7)-(N′-phenylamino)-5-(4-chlorophenyl)-5,6-diazatetracyclo[7.3.1.1^3,11.0^4,8]tetradeca-4(8),6-diene-7-carboxamide hydrochloride] | 80.08
5 | Cl.O=C(NNc1ccccc1Cl)c1nn(-c2ccc(Cl)cc2)c2c1C1CC3CC(C1)CC2C3 [Example 124, N(7)-(2-Chlorophenylamino)-5-(4-chlorophenyl)-5,6-diazatetracyclo[7.3.1.1^3,11.0^4,8]tetradeca-4(8),6-diene-7-carboxamide hydrochloride] | 66.41
6 | Cl.O=C(NNc1ccc(F)cc1)c1nn(-c2ccc(Cl)cc2)c2c1C1CC3CC(C1)CC2C3 [Example 131, N(7)-(4-Fluorophenylamino)-5-(4-chlorophenyl)-5,6-diazatetracyclo[7.3.1.1^3,11.0^4,8]tetradeca-4(8),6-diene-7-carboxamide hydrochloride] | 22.78
7 | O=C(NN(c1ccccc1)c1ccccc1)c1nn(-c2ccc(Cl)cc2)c2c1C1CC3CC(C1)CC2C3 [Example 137, N(7)-(N′,N′-Diphenylamino)-5-(4-chlorophenyl)-5,6-diazatetracyclo[7.3.1.1^3,11.0^4,8]tetradeca-4(8),6-diene-7-carboxamide] | 50.75
8 | C[C@@H](NC(=O)c1nn(-c2ccc(F)cc2F)c2c1C1CC3CC(C1)CC2C3)c1ccccc1 [Example 147, N(7)-(R-1-phenylethyl)-5-(2,4-difluorophenyl)-5,6-diazatetracyclo[7.3.1.1^3,11.0^4,8]tetradeca-4(8),6-diene-7-carboxamide] | 39.9
9 | CC(C)(NC(=O)c1nn(-c2ccc(F)cc2F)c2c1C1CC3CC(C1)CC2C3)c1ccccc1 [Example 148, N(7)-(1-Methyl-1-phenylethyl)-5-(2,4-difluorophenyl)-5,6-diazatetracyclo[7.3.1.1^3,11.0^4,8]tetradeca-4(8),6-diene-7-carboxamide] | 75.56
10 | CC[C@H](NC(=O)c1nn(-c2ccc(F)cc2F)c2c1C1CC3CC(C1)CC2C3)c1ccccc1 [Example 152, N(7)-[(S)-1-Phenylpropyl]-5-(2,4-difluorophenyl)-5,6-diazatetracyclo[7.3.1.1^3,11.0^4,8]tetradeca-4(8),6-diene-7-carboxamide] | 84.24
11 | O=C(NC12CC3CC(CC(O)(C3)C1)C2)c1nn(-c2ccc(F)cc2F)c2c1C1CC3CC(C1)CC2C3 [Example 156, N7-(3-Hydroxyadamantan-1-yl)-5-(2,4-difluorophenyl)-5,6-diazatetracyclo[7.3.1.1^3,11.0^4,8]tetradeca-4(8),6-diene-7-carboxamide] | 86.37
12 | CC(C)(NC(=O)c1nn(-c2ccc(F)cc2)c2c1C1CC3CC(C1)CC2C3)c1ccccc1 [Example 157, N(7)-(1-Methyl-1-phenylethyl)-5-(4-fluorophenyl)-5,6-diazatetracyclo[7.3.1.1^3,11.0^4,8]tetradeca-4(8),6-diene-7-carboxamide] | 84.84
13 | CC12CCC(C1)C(C)(C)C2NC(=O)c1nn(-c2ccc(F)cc2)c2c1C1CC3CC(C1)CC2C3 (stereo not shown) [Example 159, N7-(1,3,3-Trimethylbicyclo[2.2.1]hept-2-yl)-5-(4-fluorophenyl)-5,6-diazatetracyclo[7.3.1.1^3,11.0^4,8]tetradeca-4(8),6-diene-7-carboxamide] | 81.31
14 | O=C(NC1CCCC1)c1nn(-c2ccc(Cl)cc2)c2c1C1CCC2C1 (stereo not shown) [Example 212, N(3)-Cyclopentyl-1-(4-chlorophenyl)-4,5,6,7-tetrahydro-1H-4,7-methano-indazole-3-carboxamide] | 72.25
15 | O=C(NCc1ccccc1Cl)c1nn(-c2ccc(Cl)cc2)c2c1C1CCC2C1 (stereo not shown) [Example 221, N(3)-(2-Chlorobenzyl)-1-(4-chlorophenyl)-4,5,6,7-tetrahydro-1H-4,7-methano-indazole-3-carboxamide] | 0
16 | O=C(NCc1ccccc1Br)c1nn(-c2ccc(Cl)cc2)c2c1C1CCC2C1 (stereo not shown) [Example 224, N(3)-(2-Bromobenzyl)-1-(4-chlorophenyl)-4,5,6,7-tetrahydro-1H-4,7-methano-indazole-3-carboxamide] | 42.62

Row | SMILES | % Displacement Protocol II [%]
17 | CC12CCC(C1)C(C)(C)C2NC(=O)c1nn(-c2ccc(Cl)cc2Cl)c2c1C1CCC2C1 (stereo not shown) [Example 241, N(3)-(1,3,3-Trimethylbicyclo[2.2.1]hept-2-yl)-1-(2,4-dichlorophenyl)-4,5,6,7-tetrahydro-1H-4,7-methano-indazole-3-carboxamide] | 87.5
18 | O=C(NC12CC3CC(CC(C3)C1)C2)c1nn(-c2ccc(Cl)cc2Cl)c2c1C1CCC2C1 (stereo not shown) [Example 242, N(3)-(Adamantan-1yl)-1-(2,4-dichlorophenyl)-4,5,6,7-tetrahydro-1H-4,7-methano-indazole-3-carboxamide] | 84.89
19 | O=C(Nc1ccc(F)cc1F)c1nn(-c2ccc(Cl)cc2Cl)c2c1C1CCC2C1 (stereo not shown) [Example 244, N(3)-(2,4-Difluorophenyl)-1-(2,4-dichlorophenyl)-4,5,6,7-tetrahydro-1H-4,7-methano-indazole-3-carboxamide] | 1.7
20 | O=C(NC1CCCCC1)c1nn(-c2ccccc2Br)c2c1C1CCC2C1 (stereo not shown) [Example 271, N(3)-Cyclohexyl-1-(2-bromophenyl)-4,5,6,7-tetrahydro-1H-4,7-methano-indazole-3-carboxamide] | 17.7
21 | O=C(NC1CCCCC1)c1nn(-c2ccc(F)cc2)c2c1C1CCC2C1 (stereo not shown) [Example 279, N(3)-Cyclohexyl-1-(4-fluorophenyl)-4,5,6,7-tetrahydro-1H-4,7-methano-indazole-3-carboxamide] | 44.84
22 | O=C(NC12CC3CC(CC(C3)C1)C2)c1nn(-c2ccc(F)cc2)c2c1C1CCC2C1 (stereo not shown) [Example 283, N5-(Adamantan-1-yl)-3-(4-fluorophenyl)-3,4-diazatricyclo[5.2.1.0^2,6]deca-2(6),4-diene-5-carboxamide] | 58.84
23 | O=C(NC1CCCCC1)c1nn(-c2ccc(F)cc2F)c2c1C1CCC2C1 (stereo not shown) [Example 290, N(3)-Cyclohexyl-1-(2,4-difluorophenyl)-4,5,6,7-tetrahydro-1H-4,7-methano-indazole-3-carboxamide] | 70.03
24 | O=C(NCC1CCCCC1)c1nn(-c2ccc(F)cc2F)c2c1C1CCC2C1 (stereo not shown) [Example 291, N(3)-(Cyclohexylmethyl)-1-(2,4-difluorophenyl)-4,5,6,7-tetrahydro-1H-4,7-methano-indazole-3-carboxamide] | 64.44
25 | C[C@@H](NC(=O)c1nn(-c2ccc(F)cc2F)c2c1C1CCC2C1)c1ccccc1 (stereo partly shown) [Example 293, N(3)-(R-1-phenylethyl)-1-(2,4-difluorophenyl)-4,5,6,7-tetrahydro-1H-4,7-methano-indazole-3-carboxamide] | 51.88
26 | CC(C)(NC(=O)c1nn(-c2ccc(F)cc2F)c2c1C1CCC2C1)c1ccccc1 (stereo not shown) [Example 294, N(3)-(1-Methyl-1-phenylethyl)-1-(2,4-difluorophenyl)-4,5,6,7-tetrahydro-1H-4,7-methano-indazole-3-carboxamide] | 78.08
27 | CC(C)(NC(=O)c1nn(-c2ccc(F)cc2F)c2c1C1CCC2C1)c1ccccc1Cl (stereo not shown) [Example 295, N5-[1-(2-Chlorophenyl)-1-methylethyl]-3-(2,4-difluorophenyl)-3,4-diazatricyclo[5.2.1.0^2,6]deca-2(6),4-diene-5-carboxamide] | 93
28 | CC12CCC(C1)C(C)(C)C2NC(=O)c1nn(-c2ccc(F)cc2F)c2c1C1CCC2C1 (stereo not shown) [Example 296, N(3)-(1,3,3-Trimethylbicyclo[2.2.1]hept-2-yl)-1-(2,4-difluorophenyl)-4,5,6,7-tetrahydro-1H-4,7-methano-indazole-3-carboxamide] | 94.62
29 | CCC(CC)(NC(=O)c1nn(-c2ccc(F)cc2F)c2c1C1CCC2C1)c1ccccc1 (stereo not shown) [Example 299, N5-(1-Ethyl-1-phenylpropyl)-3-(2,4-difluorophenyl)-3,4-diazatricyclo[5.2.1.0^2,6]deca-2(6),4-diene-5-carboxamide] | 86.48
30 | CC[C@H](NC(=O)c1nn(-c2ccc(F)cc2F)c2c1C1CCC2C1)c1ccccc1 (stereo partly drawn) [Example 300, N5-[(1S)-1-Phenylpropyl]-3-(2,4-difluorophenyl)-3,4-diazatricyclo[5.2.1.0^2,6]deca-2(6),4-diene-5-carboxamide] | 54.93
31 | O=C(NC(CO)c1ccccc1)c1nn(-c2ccc(F)cc2F)c2c1C1CCC2C1 [Example 302, N5-[(1S)-2-Hydro-1-phenylethyl]-3-(2,4-difluorophenyl)-3,4-diazatricyclo[5.2.1.0.^2,6]deca-2(6),4-diene-5-carboxamide] | 2.43
